This note sets out measurements from the supplement of paper PMC10849652.

Chains of the proteins cited; added tags and fusions are not shown. Lines headed by an entry give the natural chain unless they say otherwise; changes in a name come on top.
UniProt Q07960: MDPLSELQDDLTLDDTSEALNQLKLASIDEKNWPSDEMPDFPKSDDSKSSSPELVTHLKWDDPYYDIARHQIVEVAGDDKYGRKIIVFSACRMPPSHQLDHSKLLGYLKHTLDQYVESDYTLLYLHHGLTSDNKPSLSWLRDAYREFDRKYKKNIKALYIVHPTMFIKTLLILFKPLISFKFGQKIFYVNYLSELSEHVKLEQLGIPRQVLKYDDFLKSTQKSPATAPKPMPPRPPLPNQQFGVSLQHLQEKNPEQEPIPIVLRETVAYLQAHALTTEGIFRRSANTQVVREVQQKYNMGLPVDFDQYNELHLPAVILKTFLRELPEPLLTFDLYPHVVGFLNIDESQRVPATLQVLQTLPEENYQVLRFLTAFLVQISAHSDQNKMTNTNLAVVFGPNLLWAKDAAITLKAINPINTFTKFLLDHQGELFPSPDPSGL
UniProt Q96CW1: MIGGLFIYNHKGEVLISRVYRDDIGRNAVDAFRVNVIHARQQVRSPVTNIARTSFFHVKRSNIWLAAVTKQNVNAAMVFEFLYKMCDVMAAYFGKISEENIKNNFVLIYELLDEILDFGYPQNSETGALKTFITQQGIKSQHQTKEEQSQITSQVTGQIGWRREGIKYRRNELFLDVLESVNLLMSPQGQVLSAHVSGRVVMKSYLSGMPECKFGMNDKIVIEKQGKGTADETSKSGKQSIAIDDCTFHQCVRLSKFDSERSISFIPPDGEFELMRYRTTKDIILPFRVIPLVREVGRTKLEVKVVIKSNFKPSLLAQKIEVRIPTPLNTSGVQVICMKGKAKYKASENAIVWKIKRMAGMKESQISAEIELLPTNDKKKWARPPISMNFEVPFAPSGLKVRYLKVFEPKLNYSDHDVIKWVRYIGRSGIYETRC
UniProt Q9BTT0: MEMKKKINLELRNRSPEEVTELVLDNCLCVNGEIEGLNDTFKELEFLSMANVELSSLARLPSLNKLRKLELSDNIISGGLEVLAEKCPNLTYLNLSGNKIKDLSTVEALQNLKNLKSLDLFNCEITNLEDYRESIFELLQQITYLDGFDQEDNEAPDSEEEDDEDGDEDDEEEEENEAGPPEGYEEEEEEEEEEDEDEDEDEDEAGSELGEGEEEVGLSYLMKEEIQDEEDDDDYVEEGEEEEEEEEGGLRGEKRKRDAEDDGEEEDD
UniProt P52566: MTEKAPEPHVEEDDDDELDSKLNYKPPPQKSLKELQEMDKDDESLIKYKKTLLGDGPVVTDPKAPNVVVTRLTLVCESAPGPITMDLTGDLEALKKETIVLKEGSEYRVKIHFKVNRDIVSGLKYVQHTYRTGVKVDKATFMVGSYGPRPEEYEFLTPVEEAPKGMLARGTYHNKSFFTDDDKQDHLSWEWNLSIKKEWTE
UniProt Q96AK3: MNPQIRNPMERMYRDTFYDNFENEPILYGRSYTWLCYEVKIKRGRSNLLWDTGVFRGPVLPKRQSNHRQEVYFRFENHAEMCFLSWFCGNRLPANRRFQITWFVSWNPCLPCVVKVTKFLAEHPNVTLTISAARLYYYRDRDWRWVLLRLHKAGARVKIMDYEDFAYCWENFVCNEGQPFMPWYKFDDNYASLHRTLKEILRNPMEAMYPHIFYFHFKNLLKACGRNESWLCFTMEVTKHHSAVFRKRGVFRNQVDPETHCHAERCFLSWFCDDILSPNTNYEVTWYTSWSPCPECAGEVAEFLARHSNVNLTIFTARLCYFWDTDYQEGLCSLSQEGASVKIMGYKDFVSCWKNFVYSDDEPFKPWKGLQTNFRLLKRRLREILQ
UniProt P02656: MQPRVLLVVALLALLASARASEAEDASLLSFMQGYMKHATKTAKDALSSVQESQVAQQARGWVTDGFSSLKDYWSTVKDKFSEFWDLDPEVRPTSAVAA
UniProt Q92619: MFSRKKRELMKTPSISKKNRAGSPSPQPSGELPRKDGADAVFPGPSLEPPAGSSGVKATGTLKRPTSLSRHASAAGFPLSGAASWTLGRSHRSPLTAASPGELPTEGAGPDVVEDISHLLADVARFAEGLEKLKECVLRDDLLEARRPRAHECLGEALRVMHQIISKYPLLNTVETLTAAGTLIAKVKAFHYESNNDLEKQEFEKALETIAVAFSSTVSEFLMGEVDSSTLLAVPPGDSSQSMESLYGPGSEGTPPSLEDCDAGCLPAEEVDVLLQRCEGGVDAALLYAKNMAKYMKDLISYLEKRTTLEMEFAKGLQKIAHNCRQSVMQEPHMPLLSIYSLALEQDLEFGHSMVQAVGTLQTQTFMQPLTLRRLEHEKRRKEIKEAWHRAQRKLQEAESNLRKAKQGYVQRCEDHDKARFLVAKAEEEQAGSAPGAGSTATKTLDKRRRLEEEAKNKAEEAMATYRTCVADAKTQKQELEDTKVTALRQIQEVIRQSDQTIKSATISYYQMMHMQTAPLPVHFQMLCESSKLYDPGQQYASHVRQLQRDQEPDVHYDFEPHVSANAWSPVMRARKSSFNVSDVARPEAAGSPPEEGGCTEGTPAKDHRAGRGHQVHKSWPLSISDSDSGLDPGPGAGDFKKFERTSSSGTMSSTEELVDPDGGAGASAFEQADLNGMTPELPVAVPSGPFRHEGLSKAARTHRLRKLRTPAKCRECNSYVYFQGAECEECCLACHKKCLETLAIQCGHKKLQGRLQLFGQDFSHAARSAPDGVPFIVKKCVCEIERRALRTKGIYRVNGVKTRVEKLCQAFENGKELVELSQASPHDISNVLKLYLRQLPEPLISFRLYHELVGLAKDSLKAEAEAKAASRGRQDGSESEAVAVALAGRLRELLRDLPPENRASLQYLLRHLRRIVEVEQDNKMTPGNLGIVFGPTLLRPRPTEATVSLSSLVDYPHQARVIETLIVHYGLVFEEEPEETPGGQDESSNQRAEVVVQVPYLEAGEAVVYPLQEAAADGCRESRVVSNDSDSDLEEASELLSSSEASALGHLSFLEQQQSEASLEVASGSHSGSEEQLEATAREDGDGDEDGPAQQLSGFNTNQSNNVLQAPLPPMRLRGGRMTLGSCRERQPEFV
UniProt Q9Y5C1: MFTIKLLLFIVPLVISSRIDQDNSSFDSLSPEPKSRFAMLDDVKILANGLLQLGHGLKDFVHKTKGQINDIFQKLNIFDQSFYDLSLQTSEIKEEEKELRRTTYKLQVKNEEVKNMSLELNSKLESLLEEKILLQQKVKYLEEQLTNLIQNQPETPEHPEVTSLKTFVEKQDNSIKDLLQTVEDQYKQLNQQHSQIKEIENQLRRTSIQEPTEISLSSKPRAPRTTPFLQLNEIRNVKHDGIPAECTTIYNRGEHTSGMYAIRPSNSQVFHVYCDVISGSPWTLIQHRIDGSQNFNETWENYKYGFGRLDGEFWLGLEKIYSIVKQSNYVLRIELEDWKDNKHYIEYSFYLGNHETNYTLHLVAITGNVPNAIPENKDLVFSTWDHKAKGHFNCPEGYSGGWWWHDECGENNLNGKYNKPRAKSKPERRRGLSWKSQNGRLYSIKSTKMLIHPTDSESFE
UniProt O60306: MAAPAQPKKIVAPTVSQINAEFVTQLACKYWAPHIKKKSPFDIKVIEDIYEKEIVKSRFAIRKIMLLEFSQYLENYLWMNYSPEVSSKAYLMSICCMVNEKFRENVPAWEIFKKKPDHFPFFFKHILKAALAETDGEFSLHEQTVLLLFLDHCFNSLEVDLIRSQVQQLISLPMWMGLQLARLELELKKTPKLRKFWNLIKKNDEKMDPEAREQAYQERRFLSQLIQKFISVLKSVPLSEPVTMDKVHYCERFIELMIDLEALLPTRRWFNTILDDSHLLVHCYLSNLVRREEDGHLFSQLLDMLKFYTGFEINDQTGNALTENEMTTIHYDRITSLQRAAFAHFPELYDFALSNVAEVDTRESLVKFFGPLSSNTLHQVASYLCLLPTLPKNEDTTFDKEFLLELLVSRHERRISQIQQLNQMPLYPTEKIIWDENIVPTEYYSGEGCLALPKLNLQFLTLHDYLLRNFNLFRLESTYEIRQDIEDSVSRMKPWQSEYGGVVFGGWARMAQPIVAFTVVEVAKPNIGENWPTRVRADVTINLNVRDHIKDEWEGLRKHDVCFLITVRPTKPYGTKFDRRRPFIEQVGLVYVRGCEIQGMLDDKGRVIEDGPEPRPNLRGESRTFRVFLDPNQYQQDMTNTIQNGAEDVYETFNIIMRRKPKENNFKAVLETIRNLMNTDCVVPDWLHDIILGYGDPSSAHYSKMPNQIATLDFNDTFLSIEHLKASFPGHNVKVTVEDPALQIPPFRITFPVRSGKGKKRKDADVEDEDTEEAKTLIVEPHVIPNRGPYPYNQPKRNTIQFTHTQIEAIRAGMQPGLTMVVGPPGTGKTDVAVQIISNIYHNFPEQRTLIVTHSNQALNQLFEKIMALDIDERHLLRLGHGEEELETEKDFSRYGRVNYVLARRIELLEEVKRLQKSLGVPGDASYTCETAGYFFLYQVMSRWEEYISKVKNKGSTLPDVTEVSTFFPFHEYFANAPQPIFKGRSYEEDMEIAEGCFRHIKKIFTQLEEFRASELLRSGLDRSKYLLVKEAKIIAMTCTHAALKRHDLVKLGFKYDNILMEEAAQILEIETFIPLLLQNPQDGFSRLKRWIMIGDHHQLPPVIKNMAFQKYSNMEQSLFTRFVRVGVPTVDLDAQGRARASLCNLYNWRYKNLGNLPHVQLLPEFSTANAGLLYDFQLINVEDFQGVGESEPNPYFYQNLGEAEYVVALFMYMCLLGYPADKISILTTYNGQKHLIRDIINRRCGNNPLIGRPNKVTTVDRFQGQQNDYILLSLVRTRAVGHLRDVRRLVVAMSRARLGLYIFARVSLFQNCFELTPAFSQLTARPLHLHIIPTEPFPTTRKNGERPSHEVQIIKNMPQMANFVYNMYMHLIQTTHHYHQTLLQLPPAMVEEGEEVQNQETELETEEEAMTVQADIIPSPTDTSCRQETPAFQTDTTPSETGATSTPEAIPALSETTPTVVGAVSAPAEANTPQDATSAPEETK
UniProt Q9UPM8: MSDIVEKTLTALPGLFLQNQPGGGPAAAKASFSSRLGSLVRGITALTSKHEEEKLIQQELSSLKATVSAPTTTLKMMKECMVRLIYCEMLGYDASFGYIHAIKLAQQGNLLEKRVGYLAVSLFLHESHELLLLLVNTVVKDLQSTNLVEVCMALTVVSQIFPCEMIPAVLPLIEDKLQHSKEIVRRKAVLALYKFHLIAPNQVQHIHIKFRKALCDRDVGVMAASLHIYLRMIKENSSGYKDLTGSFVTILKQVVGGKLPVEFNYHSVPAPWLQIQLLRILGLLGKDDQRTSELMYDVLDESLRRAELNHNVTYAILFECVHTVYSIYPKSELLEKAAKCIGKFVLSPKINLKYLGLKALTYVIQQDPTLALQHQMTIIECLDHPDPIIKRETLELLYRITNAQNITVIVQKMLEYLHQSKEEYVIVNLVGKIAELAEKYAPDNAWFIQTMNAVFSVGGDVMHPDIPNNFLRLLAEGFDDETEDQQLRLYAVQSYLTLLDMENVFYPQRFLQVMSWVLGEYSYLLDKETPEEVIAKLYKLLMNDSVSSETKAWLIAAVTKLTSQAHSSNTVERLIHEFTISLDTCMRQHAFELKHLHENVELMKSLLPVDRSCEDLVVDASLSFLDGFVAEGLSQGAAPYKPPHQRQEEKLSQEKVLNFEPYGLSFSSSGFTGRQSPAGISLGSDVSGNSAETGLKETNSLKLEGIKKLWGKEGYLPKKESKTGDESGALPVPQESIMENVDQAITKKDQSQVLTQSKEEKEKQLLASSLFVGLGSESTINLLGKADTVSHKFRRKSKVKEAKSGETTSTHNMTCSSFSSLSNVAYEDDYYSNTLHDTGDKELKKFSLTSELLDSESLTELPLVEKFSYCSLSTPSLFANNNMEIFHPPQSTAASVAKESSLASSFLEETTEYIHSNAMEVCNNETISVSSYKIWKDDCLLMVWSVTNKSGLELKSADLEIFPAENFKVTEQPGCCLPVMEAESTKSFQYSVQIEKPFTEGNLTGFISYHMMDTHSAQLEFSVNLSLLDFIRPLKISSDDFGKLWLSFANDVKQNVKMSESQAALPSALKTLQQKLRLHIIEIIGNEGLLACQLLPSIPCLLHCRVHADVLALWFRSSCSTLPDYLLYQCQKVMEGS
UniProt Q9BZZ5: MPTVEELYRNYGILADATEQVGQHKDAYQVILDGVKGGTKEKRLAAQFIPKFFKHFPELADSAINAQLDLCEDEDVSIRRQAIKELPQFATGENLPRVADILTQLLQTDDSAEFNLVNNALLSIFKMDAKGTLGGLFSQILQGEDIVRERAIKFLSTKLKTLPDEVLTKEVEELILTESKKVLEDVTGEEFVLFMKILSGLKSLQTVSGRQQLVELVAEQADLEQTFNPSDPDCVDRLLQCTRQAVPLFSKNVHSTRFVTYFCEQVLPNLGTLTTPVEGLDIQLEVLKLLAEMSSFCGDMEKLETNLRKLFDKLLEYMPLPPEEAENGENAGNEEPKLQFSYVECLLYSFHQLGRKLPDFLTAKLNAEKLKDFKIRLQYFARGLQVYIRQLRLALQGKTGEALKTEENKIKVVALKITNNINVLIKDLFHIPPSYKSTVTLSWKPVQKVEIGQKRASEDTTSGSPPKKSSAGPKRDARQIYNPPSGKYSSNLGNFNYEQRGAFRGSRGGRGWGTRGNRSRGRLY

The other results are listed elsewhere or left out.

Holding throughout (experiment): log2 fold change, soluble protein after heating vs DMSO (PISA); higher = thermal stabilisation; K562 cells, 10 uM, 30 min; active = over 0.2 and 3.5 SD of the protein, either way, in both replicates (recomputed)
Compound in experiment [1]: NC(=O)Nc1cc(-c2cccc(F)c2)sc1C(=O)N[C@H]1CCCNC1
The method in brief: (§1)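 Aliquots of K562 cells (2×10^6 cells/mL) treated with 10 μM compound for 30 min were heated for 3 min over 48°C-58°C. After pooling and extraction in PBS with 0.5% NP-40 at 4°C, soluble protein from a 21,000xg, 90 min spin was quantified by TMTpro 16plex LC-MS/MS with channel sums equalised. Thermal stability is expressed against control samples, from duplicates, as a log2 fold change.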

Compound in experiment [2]: NC(=O)c1cnc(N[C@@H]2CCCC[C@@H]2N)nc1Nc1cccc(-n2nccn2)c1
The method in brief:
as §1

Compound in experiment [3]: NC1(c2ccc(-c3nc4ccn5c(=O)[nH]nc5c4cc3-c3ccccc3)cc2)CCC1
The method in brief: as §1

Compound in experiment [4]: NCC(=O)Nc1ccc(-n2nc(C(F)(F)F)cc2-c2ccc3c(ccc4ccccc43)c2)cc1
The method in brief:
as §1

Compound in the next experiment: Nc1ccccc1NC(=O)c1ccc(CNC(=O)OCc2cccnc2)cc1 [entinostat]
The method in brief: as §1

Compound in a further experiment: O=C(CCCCCCC(=O)Nc1ccccc1)NO [vorinostat]
The method in brief:
as §1

Compound in another experiment: O=C(CCCCCCNC(=O)c1cnc(N(c2ccccc2)c2ccccc2Cl)nc1)NO [citarinostat]
An outline of the steps: as §1

Compound in another experiment: O=C(O)c1ccc2c(c1)nc(Nc1cccc(Cl)c1)c1ccncc12 [silmitasertib]
An outline of the steps:
as §1

Compound in experiment [5]: O=C1NC(=O)C(c2cnc3ccccn23)=C1c1cn2c3c(cc(F)cc13)CN(C(=O)N1CCCCC1)CC2
An outline of the steps:
as §1

Compound in experiment [6]: c1cc(OCCN2CCCCC2)cc(-c2n[nH]c3ccc(-c4nnc[nH]4)cc23)c1
An outline of the steps: as §1

On to ARHGAP1 (UniProt Q07960), for which the log2 fold change in [1] is inactive: -0.068; in experiment [2], inactive: -0.048; in experiment [3], inactive: -0.003; in [4] it was inactive: -0.051; with entinostat, inactive: 0.016; with vorinostat it was inactive: 0.012. Further, the log2 fold change was inactive: 0.009 with citarinostat, inactive: 0.014 with silmitasertib, inactive: -0.024 in experiment [5] and inactive: -0.093 in experiment [6].
With AP2M1 (UniProt Q96CW1), the log2 fold change in experiment [1] is active: -0.293; in experiment [2] it was inactive: 0.004; in experiment [3], inactive: 0.012; in [4], inactive: -0.003; in the experiment with entinostat it was inactive: -0.007; with vorinostat, inactive: 0.06. For the same target, the log2 fold change in the experiment with citarinostat is inactive: -0.004; in the experiment with silmitasertib, inactive: 0.029; in [5], active: -0.237; in experiment [6] it was inactive: -0.209.
Turning to ANP32E (UniProt Q9BTT0), the log2 fold change in [1] is inactive: 0.029; in experiment [2] it was inactive: -0.043; in experiment [3], inactive: 0.014; in experiment [4] it was inactive: 0.063; in the experiment with entinostat, inactive: 0.016; with vorinostat, inactive: 0.01. For the same target, the log2 fold change was inactive: 0.116 with citarinostat, inactive: 0.083 with silmitasertib, inactive: -0.233 in experiment [5] and inactive: -0.036 in [6].
Consider ARHGDIB (UniProt P52566), for which the log2 fold change in experiment [1] was inactive: -0.019; in experiment [2], inactive: -0.083; in experiment [3], inactive: -0.083; in [4] it was inactive: -0.073; with entinostat, inactive: -0.003; with vorinostat, inactive: -0.021. In addition, the log2 fold change in the experiment with citarinostat is inactive: 0.023; in the experiment with silmitasertib it was inactive: 0.019; in experiment [5] it was inactive: -0.051; in experiment [6] it was inactive: 0.025.
Turning to APOBEC3D (UniProt Q96AK3), the log2 fold change was inactive: 0.012 in [1]; inactive: -0.165 in experiment [2]; inactive: 0.151 in experiment [3]; inactive: 0.1 in experiment [4]; inactive: -0.011 with entinostat; inactive: -0.001 with citarinostat. For the same target, the log2 fold change in the experiment with silmitasertib is inactive: 0.167; in experiment [5], inactive: 0.179; in experiment [6] it was inactive: -0.15.
Take APOC3 (UniProt P02656): the log2 fold change in experiment [1] is inactive: 0.019; in experiment [2], inactive: 0.181; in experiment [3], inactive: 0.619; in the experiment with entinostat, inactive: -0.131; with citarinostat it was inactive: 0.177; in the experiment with silmitasertib it was inactive: -0.159. Besides, the log2 fold change in experiment [5] is inactive: 0.106; in experiment [6], inactive: 0.066.
For ARHGAP45 isoform 2 (UniProt Q92619), the log2 fold change in [1] is inactive: -0.142; in experiment [2] it was inactive: -0.078; in [3] it was inactive: -0.162; in [4], inactive: 0.076; with entinostat, inactive: -0.034; in the experiment with vorinostat it was inactive: 0.058. Also, the log2 fold change in the experiment with citarinostat is inactive: -0.06; in the experiment with silmitasertib, inactive: 0.069; in [5], inactive: -0.054; in experiment [6], inactive: -0.032.
Take ANPEP (UniProt P15144): the log2 fold change is inactive: -0.123 in experiment [1]; inactive: 0.099 in experiment [2]; inactive: -0.11 in experiment [3]; inactive: -0.025 with entinostat; inactive: 0.053 with vorinostat; inactive: 0.025 with silmitasertib.
Consider ARHGAP4 isoform 2 (UniProt P98171), for which the log2 fold change is inactive: 0.197 in experiment [1]; inactive: -0.079 in experiment [2]; inactive: 0.021 in experiment [3]; inactive: -0.036 in experiment [4]; inactive: 0.081 with entinostat; inactive: 0.047 in the experiment with citarinostat. Moreover, the log2 fold change was inactive: -0.043 with silmitasertib and inactive: -0.097 in experiment [6].
As for ANGPTL3 (UniProt Q9Y5C1), the log2 fold change in experiment [1] is inactive: -0.277; in [2], inactive: 0.085; in experiment [3], inactive: 0.165; in experiment [4], inactive: -0.041; in the experiment with entinostat, inactive: -0.289; with citarinostat, inactive: 0.008. Further, the values for the log2 fold change (in the experiment with silmitasertib; in [5]; in [6]) were inactive: 0.125, inactive: 0.061 and inactive: 0.037, respectively.
For AQR (UniProt O60306), the log2 fold change in [1] is inactive: -0.009; in [2], inactive: -0.02; in experiment [3] it was inactive: -0.078; in experiment [4], inactive: 0.23; in the experiment with entinostat it was inactive: -0.004; in the experiment with vorinostat it was inactive: 0.002. The log2 fold change in the experiment with silmitasertib was inactive: 0.165; in experiment [5] it was inactive: 0.022.
ARHGEF7 isoform 5 (UniProt Q14155): the log2 fold change in experiment [1] was inactive: -0.037; in [2], inactive: -0.035; in experiment [3] it was inactive: 0.097; in experiment [4] it was inactive: -0.045; with entinostat, inactive: 0.055; in the experiment with vorinostat, inactive: 0.106. Besides, the log2 fold change was inactive: 0.153 in the experiment with silmitasertib and inactive: 0.142 in [5].
With AP4E1 (UniProt Q9UPM8), the log2 fold change is inactive: 0.063 in experiment [1]; inactive: -0.015 in experiment [2]; inactive: 0.016 in [3]; inactive: -0.036 in experiment [4]; inactive: -0.056 with entinostat; inactive: 0.132 in the experiment with vorinostat. For the same target, the log2 fold change in the experiment with silmitasertib was inactive: 0.025; in experiment [5] it was inactive: 0.049.
AP1M1 (UniProt Q9BXS5): the log2 fold change was inactive: -0.014 in experiment [1]; inactive: -0.043 in experiment [2]; inactive: -0.048 in experiment [3]; inactive: 0.006 in experiment [4]; inactive: -0.016 with entinostat; inactive: 0.019 with vorinostat. The log2 fold change with citarinostat is inactive: -0.005; with silmitasertib, inactive: 0.037; in experiment [5], inactive: 0.027; in [6], inactive: -0.085.
Regarding API5 (UniProt Q9BZZ5), the log2 fold change in experiment [1] was inactive: 0.001; in experiment [2], inactive: -0.006; in experiment [3], inactive: -0.034; in experiment [4], inactive: -0.013; with entinostat, inactive: -0.01; with vorinostat it was inactive: 0.05. Further, the log2 fold change is inactive: 0.048 with citarinostat, inactive: -0.032 in the experiment with silmitasertib, inactive: -0.058 in experiment [5] and inactive: -0.054 in experiment [6].
